# Laboratory results as given in patent US20250305023A1, “MEASUREMENT OF PERMEATION OF SMALL MOLECULES INTO GRAM NEGATIVE BACTERIA” (University of Virginia Patent Foundation, priority 2022, published 2025).
# Some of these results come from one statement about several compounds together.
# Test system: E. coli expressing HaloTag
# Experiment: Bacterial ChloroAlkane Penetration Assay (BaCAPA) pulse-chase, flow cytometry
# Type: cell-based, Escherichia coli
# Settings: methylation series of amino group, FIG. 4A
row,SMILES,relative accumulation in E. coli
1,"NCC(=O)NCCOCCOCCCCCCCl [Compound 2, HaloTag-glycinamide]",minimal difference in relative accumulation
2,"CNCC(=O)NCCOCCOCCCCCCCl [Compound 3, HaloTag-N-methyl glycinamide]",minimal difference in relative accumulation
3,"CN(C)CC(=O)NCCOCCOCCCCCCCl [Compound 4, HaloTag-N, N-Dimethyl glycinamide]",minimal difference in relative accumulation
